# Percent effect of library compounds

Chains of the proteins cited; added tags and fusions are not shown. Residues count along the entry.
UniProt Q8IDJ8, 1-583: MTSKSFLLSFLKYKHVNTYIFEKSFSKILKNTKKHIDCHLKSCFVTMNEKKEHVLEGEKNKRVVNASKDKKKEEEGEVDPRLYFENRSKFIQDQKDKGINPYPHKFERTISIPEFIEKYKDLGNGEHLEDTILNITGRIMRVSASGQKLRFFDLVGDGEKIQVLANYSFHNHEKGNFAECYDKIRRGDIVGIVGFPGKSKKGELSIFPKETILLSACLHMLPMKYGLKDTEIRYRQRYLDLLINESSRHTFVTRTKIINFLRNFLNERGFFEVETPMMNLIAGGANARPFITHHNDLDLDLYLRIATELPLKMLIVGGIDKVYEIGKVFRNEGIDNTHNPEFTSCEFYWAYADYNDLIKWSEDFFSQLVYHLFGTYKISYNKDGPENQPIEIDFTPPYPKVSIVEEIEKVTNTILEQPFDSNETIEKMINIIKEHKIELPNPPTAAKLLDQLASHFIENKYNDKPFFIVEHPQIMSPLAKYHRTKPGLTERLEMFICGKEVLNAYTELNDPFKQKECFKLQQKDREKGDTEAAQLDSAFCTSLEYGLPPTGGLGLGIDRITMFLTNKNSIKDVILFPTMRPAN

From ChEMBL document CHEMBL3988442, “University of Dundee, Small-Polar-MMV Screening Library” (2021).

Results are given as percent effect.
The record does not define 0% and 100%; most values in the screen are far below 50% and negative numbers occur (in some assays of this library far below -100).
The compounds are a random part of those screened.

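Lysine-tRNA ligase, Plasmodium falciparum 3D7 (UniProt Q8IDJ8). Enzyme assay of the cytosolic lysyl-tRNA synthetase in 384-well plates, read by luminescence. Concentration: 30 µM. Direction is inferred from only a few compounds that gave an IC50; most scored high, so higher reads as stronger inhibition. Size under these conditions: about 69,000 compounds, about 49 of them at 50% or above in at least one test.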

SMILES | effect
c1ccc(-n2ccc(CNC3CCc4ncnn4C3)n2)cc1 (configuration not stated) | 1.667
Cc1nc(C)n(CC2CCCN(c3ccc(C#N)cn3)C2)n1 (configuration not stated) | 1.749
COCCS(=O)(=O)NC(C)c1cccc(-n2cccn2)c1 (configuration not stated) | 4.237
COCCN1CCC(CNC(=O)c2c[nH]c(=O)c(Cl)c2)CC1 | 2.106
COc1cc(N2CCCC(CO)(Cc3ccccc3F)C2)ncn1 (configuration not stated) | 5.993
CCCN1CCCn2nc(CNC(=O)C3CCOC3)cc2C1 (configuration not stated) | -0.08269
CC(C)NC(=O)CC1CC2(CCN(S(C)(=O)=O)CC2)c2ccccc21 (configuration not stated) | 2.178
Cc1noc(-c2ccnc(N3CCN(C4CCOCC4)CC3)c2)n1 | -0.5819
COc1cc(CNCc2c(C)nn(C)c2N(C)C)ccn1 | 5.876
Cc1nnc(CN2C[C@H](NC(=O)C3CCOCC3)[C@@H](C(C)C)C2)s1 | 1.473
COCCN(C)C(=O)c1ccc(OC)cc1O | 1.452
O=C(O)c1cccc(N2CCC(Oc3cccc(F)c3)CC2)n1 | 5.953
CCc1n[nH]c(C2CN(C(=O)c3cnc(C)nc3CC)CCO2)n1 (configuration not stated) | 0.4288
CCCc1ccc(C(=O)N2Cc3c(Cn4ccnc4)nn(C)c3C2)cc1 | 3.302
CCC(=O)N1CCN(c2cc(N(C)C)cnn2)CC1 | 1.053
COc1ccc2nc(C)c(C(=O)NCCN3CCS(=O)(=O)CC3)cc2c1 | 9.579
Cc1cc(N2CCCCCC2)n2nc(C)c(C)c2n1 | 9.721
Clc1ccc(CN(CCN2CCOCC2)Cc2cccnc2)cc1Cl | 0.2288
Cc1ccc(NCCNC(=O)c2cc(CC(C)C)n[nH]2)nn1 | 6.198
Cn1c(-c2cccs2)nn(CCNS(=O)(=O)c2ccccc2Cl)c1=O | 5.579
COc1ccc2c(c1)C(=O)N(C)C1(CCN(CC3CC3)CC1)N2 | 1.283
NC(=O)COc1ccc(CNCc2c(F)cccc2F)cc1 | 7.678
Cc1ccc(CN2CCC3(CCN(Cc4ccncc4)CC3)CC2)cc1 | -1.209
COc1cc(C(=O)N(Cc2cnn(C)c2)C(C)C)ccc1OC(C)C | 0.4254
O=C1NCCN(Cc2ccoc2)C1CC(=O)N1CCc2sccc2C1 (configuration not stated) | 4.993
O=C(Cc1cccs1)NC1CCN(c2cccc(F)c2)CC1 | 0.3593
COc1cccc(COCC(=O)NC(C(N)=O)c2ccccc2)c1 (configuration not stated) | 3.908
CCn1cc(NC(=O)NCC(c2ccc(OC)cc2)N(C)C)cn1 (configuration not stated) | 4.142
CS(=O)(=O)NCc1cc(=O)n2c(n1)CN(Cc1ccco1)CCC2 | 6.914
Cc1cc(NC(=O)CN2CCCC2c2noc(C3CC3)n2)on1 (configuration not stated) | 3.692
CC(C)NC(=O)c1ccc2c(c1)nc1n2CCN(c2ccccc2)C1 | 8.385
CCNC(=O)[C@@H]1C[C@H](NC(=O)c2cncnc2C)CN1Cc1ccsc1 | 4.214
Cc1ccc(C(=O)N2CCc3ncnc(-c4cnn(C)c4)c3CC2)o1 | 5.278
CSCCCN1CCC(c2nnc(Cn3ccnc3)n2C2CC2)CC1 | 2.06
CCc1nc(C2CCCN(C(=O)c3cccc4cn[nH]c34)C2)no1 (configuration not stated) | 1.495
CS(=O)(=O)N1CC2(CCN(C3CCCCC3)CC2)Cc2ccccc21 | 1.284
O=C1CC(NS(=O)(=O)N2CCOCC2)CN1CCc1ccccc1 (configuration not stated) | 3.625
CNC(=O)NC(=O)C(C)N1CCN(C2CCCC2)CC1 (configuration not stated) | 0.3534
CNC(=O)[C@@H]1C[C@@H](N)CN1C(=O)CCSCc1ccc(F)cc1 | 3.537
Cc1cc(NC(=O)Nc2ccc3c(ccn3CCN(C)C)c2)n(C)n1 | -3.119
Cc1ccc(NC(=O)NC(C)(C)c2noc(C)n2)cc1 | 4.334
CN(Cc1ccccc1)c1cnn(CC2COCCO2)c(=O)c1 (configuration not stated) | 5.612
CC(C)c1nn(C)c(N(C)C)c1CNCC(O)c1ccccc1F (configuration not stated) | -4.463
Cc1cc(NCc2cc3n(n2)CCCN(C(=O)C2CCC2)C3)nc(N)n1 | 3.866
CC(C)N1CCC(Cn2cc(C(N)=O)cn2)CC1 | 0.01423
COc1cccc(C(=O)NS(=O)(=O)c2cncc(Br)c2)c1OC | 4.537
O=C(CCc1nnc(-c2ccsc2)o1)NCC1CCN(C2CC2)C1 (configuration not stated) | 0.9169
CC(C)OC(=O)CCNC(=O)Nc1cccc2ncccc12 | -4.021
CC(=O)NCC(=O)N1CC[C@H](OCC2CC2)[C@@H]1Cc1cccnc1 | 2.871
Fc1ccc(CN2CCO[C@H]3[C@H](Oc4ccccn4)CC[C@@H]32)cc1 | -2.56
COC(C)(C)C(=O)N[C@H]1CN(c2ncccc2C(N)=O)C[C@@H]1C(C)C | 3.435
O=C1OCCC1N1CCN(c2ccc(O)cc2)CC1 (configuration not stated) | 5.893
CNC(=O)Cc1ccc(NC(=O)NCC(C)c2ncc(C)s2)cc1 (configuration not stated) | 2.748
Cc1nc(C)c(S(=O)(=O)NC(=O)c2ccsc2)s1 | -2.801
Cc1nc(CO[C@@H]2CN(Cc3ccccn3)[C@@H]3COC[C@@H]32)cs1 | 3.435
CC(NCc1cccc(NC(=O)C2CCCCC2)c1)c1cnn(C)c1 (configuration not stated) | 2.596
CNc1cc(C2CN(C(=O)c3cnn(C)c3)CCO2)nc(C)n1 (configuration not stated) | -2.203
CS(=O)(=O)N1CCN(C(=O)c2cc(-c3ccc(Br)s3)n[nH]2)CC1 | 2.635
CN(C)CCCNC(=O)c1cc(Cl)ccc1Cl | 1.381
Cn1cc(C(=O)CC2CCCN2C(=O)c2ccc(Cl)cn2)cn1 (configuration not stated) | 4.251
CC(NC(=O)Nc1cccnc1N1CCCC1)c1ccccn1 (configuration not stated) | 0.4676
O=C(O)c1c[nH]c2cc(NS(=O)(=O)c3cccc(Cl)c3F)ccc12 | 1.426
CCOCC1CN(Cc2nccs2)Cc2nn(CC3CC3)cc21 (configuration not stated) | 4.807
Cc1cnn(CC2CCCN2Cc2noc(C3CC3)n2)c1 (configuration not stated) | 0.4104
CN(CCCNC(=O)c1ccccc1OCC(N)=O)CC(F)(F)F | 3.416
Cc1ccsc1CN(C)c1cc(N2CCCC2CO)ncn1 (configuration not stated) | 2.866
O=C(c1cc2cccc(F)c2[nH]1)N1C[C@@H](O)[C@H](N2CCOCC2)C1 | 0.7227
Cc1cc(C)c(CNC(=O)N(C)Cc2ccc(F)cc2)c(=O)[nH]1 | -0.7938
O=C(NC1CCCCC1)NC1CCCc2c1cnn2CCO (configuration not stated) | -0.2059
O=C(c1ccc(F)cc1)N1CCN2C[C@H](Oc3cccnc3)C[C@H]2C1 | 7.993
COc1ccc(CN2CCC(O)CC2)c(OC)c1 | -1.064
COc1ccc(CNc2cc3[nH]c(O)nc3cc2C)cc1 | 3.453
O=C(CCc1ccccn1)N1CCCC(n2cncn2)C1 (configuration not stated) | 0.7694
COc1ccc(CCNC(=O)c2ccc(=O)n(C)c2)c(Cl)c1 | 5.81
CC(=O)Nc1nc(C(=O)N2CCCC(c3cc(C)[nH]n3)C2)cs1 (configuration not stated) | 3.327
CCNC(=O)N1CCc2ccc(NC(=O)NCCOCC)cc21 | 1.623
CNS(=O)(=O)Cc1ccc(CNC(=O)c2ccc(C)[nH]c2=O)cc1 | 4.417
CCCN(C)c1ccc(C(=O)NCc2ccnc(C)n2)cc1 | 0.4283
CC(=O)N1CCN(C(=O)CCCc2nc(C(C)C)no2)CC1 | 9.019
Cc1cccc(C)c1Nc1noc2c1CN(C(=O)c1ccn(C)n1)CC2 | 0.1048
CCN1CCN(C2CCN(C(C(N)=O)c3ccccc3)CC2)C1=O (configuration not stated) | 5.046
O=C(O)c1sccc1Oc1ccc(NC(=O)C2CC2)cc1 | 2.605
COc1cccc(C(C)N2CCN(S(=O)(=O)c3ccccc3)CC2)c1 (configuration not stated) | -0.2216
CO[C@@H]1CC[C@H]2[C@H]1OCCN2Cc1ccccn1 | -4.203
CSCC[C@@H](CO)Nc1ccc(-c2nc(-c3ccccc3F)no2)cn1 | -1.302

10 of the entries, repeated:

* CC(C)NC(=O)c1ccc2c(c1)nc1n2CCN(c2ccccc2)C1 | 8.385%
* Cc1cccc(C)c1Nc1noc2c1CN(C(=O)c1ccn(C)n1)CC2 | 0.1048%
* Cc1ccc(C(=O)N2CCc3ncnc(-c4cnn(C)c4)c3CC2)o1 | 5.278%
* Cc1cnn(CC2CCCN2Cc2noc(C3CC3)n2)c1 (configuration not stated) | 0.4104%
* Cc1cc(C)c(CNC(=O)N(C)Cc2ccc(F)cc2)c(=O)[nH]1 | -0.7938%
* CCc1nc(C2CCCN(C(=O)c3cccc4cn[nH]c34)C2)no1 (configuration not stated) | 1.495%
* CCn1cc(NC(=O)NCC(c2ccc(OC)cc2)N(C)C)cn1 (configuration not stated) | 4.142%
* Fc1ccc(CN2CCO[C@H]3[C@H](Oc4ccccn4)CC[C@@H]32)cc1 | -2.56%
* COCCN(C)C(=O)c1ccc(OC)cc1O | 1.452%
* NC(=O)COc1ccc(CNCc2c(F)cccc2F)cc1 | 7.678%